# Taken from: PubChem BioAssay AID1259254 (NCATS, 2017)
# Aim: 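Finding genes that stop cells copying their DNA twice in one cycle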 (primary screen)
# Cell system: human HCT116 colorectal cancer cells
# Reagents: single siRNA against human genes
# Duration: 3 days
# Read-out: 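Imaged Hoechst DNA stain sorts each cell into a cycle phase by DNA amount; per plate, G2 fraction set to 0% for non-targeting and 100% for GMNN siRNA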
# Scale: G2 robust z-score: higher = more G2 cells, more excess DNA replication
# Rule for the call: 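Active siRNAs have a G2 robust z of 5 or more median absolute deviations over the median, which in these data means about 38% or higher of GMNN control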
# The deposit covers about 59,000 reagents; this is an unselected part. About 1,550 of all reagents (2.6%) count as active. 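G2 share is only a proxy for re-replication; each gene was hit by three separate siRNAs, and active genes were retested.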 A number with no mark means an inactive call. Further read-outs or replicates are left out here. The record does not give: the amount of reagent.
gene knocked down,PubChem SID,G2 robust z-score
LRATD1 (LRAT domain containing 1),SID160759096,-1.24
LRATD1 (LRAT domain containing 1),SID160759097,-0.811
LRATD1 (LRAT domain containing 1),SID160759098,-1.24
RSPO3 (R-spondin 3),SID160752817,1.46
RSPO3 (R-spondin 3),SID160752818,0.59
RSPO3 (R-spondin 3),SID160752819,-0.114
ADAM33 (ADAM metallopeptidase domain 33),SID160750408,-1.12
ADAM33 (ADAM metallopeptidase domain 33),SID160750409,1.83
ADAM33 (ADAM metallopeptidase domain 33),SID160750410,5.8 (active)
HDDC3 (HD domain containing 3),SID160765299,-0.0499
HDDC3 (HD domain containing 3),SID160765300,-0.208
HDDC3 (HD domain containing 3),SID160765301,-0.712
SNRPE (small nuclear ribonucleoprotein polypeptide E),SID160717136,3.68
SNRPE (small nuclear ribonucleoprotein polypeptide E),SID160717137,3.07
SNRPE (small nuclear ribonucleoprotein polypeptide E),SID160717138,0.794
BORCS8 (BLOC-1 related complex subunit 8),SID160727294,-0.482
BORCS8 (BLOC-1 related complex subunit 8),SID160727296,-1.2
BORCS8 (BLOC-1 related complex subunit 8),SID160734678,0.564
LOC729860 (retired record),SID160773238,-0.362
LOC729860 (retired record),SID160773239,-0.076
LOC729860 (retired record),SID160773240,-0.105
RBM47 (RNA binding motif protein 47),SID160741802,0.395
RBM47 (RNA binding motif protein 47),SID160741803,3.11
RBM47 (RNA binding motif protein 47),SID160741805,3.13
PPP6R1 (protein phosphatase 6 regulatory subunit 1),SID160732284,-0.086
PPP6R1 (protein phosphatase 6 regulatory subunit 1),SID160732294,2.81
PPP6R1 (protein phosphatase 6 regulatory subunit 1),SID160732305,0.399

Continued (4 carried over from the part before).
gene knocked down,PubChem SID,G2 robust z-score
RBM47 (RNA binding motif protein 47),SID160741805,3.13
PPP6R1 (protein phosphatase 6 regulatory subunit 1),SID160732284,-0.086
PPP6R1 (protein phosphatase 6 regulatory subunit 1),SID160732294,2.81
PPP6R1 (protein phosphatase 6 regulatory subunit 1),SID160732305,0.399
OAF (out at first homolog),SID160761520,-0.386
OAF (out at first homolog),SID160761522,0.979
OAF (out at first homolog),SID160761523,-0.828
CCN6 (cellular communication network factor 6),SID160720937,0.553
CCN6 (cellular communication network factor 6),SID160720938,-0.253
CCN6 (cellular communication network factor 6),SID160720939,2.69
HSD52,SID160772785,-1.29
HSD52,SID160772786,0.993
HSD52,SID160772787,-0.518
"TNNT1 (troponin T1, slow skeletal type)",SID160718220,0.633
"TNNT1 (troponin T1, slow skeletal type)",SID160718221,-0.339
"TNNT1 (troponin T1, slow skeletal type)",SID160718222,-0.528
NPAP1 (nuclear pore associated protein 1),SID160736828,2.81
NPAP1 (nuclear pore associated protein 1),SID160736829,0.786
NPAP1 (nuclear pore associated protein 1),SID160736830,-0.843
TACR3 (tachykinin receptor 3),SID160717638,2.52
TACR3 (tachykinin receptor 3),SID160717639,-0.263
TACR3 (tachykinin receptor 3),SID160717640,2.95
MAGT1 (magnesium transporter 1),SID160732008,-0.517
MAGT1 (magnesium transporter 1),SID160751641,0.762
MAGT1 (magnesium transporter 1),SID160751642,0.858
